Assay results taken from the supplement of paper PMC10849652.
Some of the results follow.

Protein sequences, listed by entry. Tags and fused reporters are not part of them. Lines headed by an entry give the natural chain unless they say otherwise; changes in a name come on top.
UniProt O75122: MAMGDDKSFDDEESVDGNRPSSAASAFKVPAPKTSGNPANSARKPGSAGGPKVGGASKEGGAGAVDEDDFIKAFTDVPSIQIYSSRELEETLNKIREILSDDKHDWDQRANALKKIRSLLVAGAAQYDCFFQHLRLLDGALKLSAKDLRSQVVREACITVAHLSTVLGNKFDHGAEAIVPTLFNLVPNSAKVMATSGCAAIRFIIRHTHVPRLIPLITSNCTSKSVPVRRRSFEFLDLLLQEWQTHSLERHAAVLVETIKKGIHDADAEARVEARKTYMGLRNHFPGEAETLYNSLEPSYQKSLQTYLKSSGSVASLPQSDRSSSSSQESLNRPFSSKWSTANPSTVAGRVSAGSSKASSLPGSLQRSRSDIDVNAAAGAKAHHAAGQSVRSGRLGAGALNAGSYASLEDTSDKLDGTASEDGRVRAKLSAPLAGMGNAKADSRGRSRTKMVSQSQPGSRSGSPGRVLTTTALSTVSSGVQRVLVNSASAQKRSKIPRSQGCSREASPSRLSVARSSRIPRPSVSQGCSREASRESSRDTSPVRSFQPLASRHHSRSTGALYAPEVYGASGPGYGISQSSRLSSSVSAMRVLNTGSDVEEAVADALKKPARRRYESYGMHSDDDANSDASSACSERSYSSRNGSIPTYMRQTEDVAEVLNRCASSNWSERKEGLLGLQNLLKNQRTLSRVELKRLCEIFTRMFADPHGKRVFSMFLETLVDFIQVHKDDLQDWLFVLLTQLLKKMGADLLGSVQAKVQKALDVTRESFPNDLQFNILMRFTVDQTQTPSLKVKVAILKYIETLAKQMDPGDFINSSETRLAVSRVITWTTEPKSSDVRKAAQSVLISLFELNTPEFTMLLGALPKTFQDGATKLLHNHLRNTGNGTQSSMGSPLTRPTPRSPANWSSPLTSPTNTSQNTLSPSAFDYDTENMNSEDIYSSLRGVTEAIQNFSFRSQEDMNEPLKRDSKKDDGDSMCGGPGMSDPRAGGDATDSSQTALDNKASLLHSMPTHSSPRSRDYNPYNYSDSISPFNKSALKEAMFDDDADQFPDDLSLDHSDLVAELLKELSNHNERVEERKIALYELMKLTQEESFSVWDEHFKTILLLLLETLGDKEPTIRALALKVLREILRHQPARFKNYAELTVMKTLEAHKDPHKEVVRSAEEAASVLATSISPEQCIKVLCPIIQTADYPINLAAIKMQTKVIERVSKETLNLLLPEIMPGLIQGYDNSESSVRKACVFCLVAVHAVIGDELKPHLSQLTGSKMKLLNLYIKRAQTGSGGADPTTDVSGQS
UniProt Q8IZ52: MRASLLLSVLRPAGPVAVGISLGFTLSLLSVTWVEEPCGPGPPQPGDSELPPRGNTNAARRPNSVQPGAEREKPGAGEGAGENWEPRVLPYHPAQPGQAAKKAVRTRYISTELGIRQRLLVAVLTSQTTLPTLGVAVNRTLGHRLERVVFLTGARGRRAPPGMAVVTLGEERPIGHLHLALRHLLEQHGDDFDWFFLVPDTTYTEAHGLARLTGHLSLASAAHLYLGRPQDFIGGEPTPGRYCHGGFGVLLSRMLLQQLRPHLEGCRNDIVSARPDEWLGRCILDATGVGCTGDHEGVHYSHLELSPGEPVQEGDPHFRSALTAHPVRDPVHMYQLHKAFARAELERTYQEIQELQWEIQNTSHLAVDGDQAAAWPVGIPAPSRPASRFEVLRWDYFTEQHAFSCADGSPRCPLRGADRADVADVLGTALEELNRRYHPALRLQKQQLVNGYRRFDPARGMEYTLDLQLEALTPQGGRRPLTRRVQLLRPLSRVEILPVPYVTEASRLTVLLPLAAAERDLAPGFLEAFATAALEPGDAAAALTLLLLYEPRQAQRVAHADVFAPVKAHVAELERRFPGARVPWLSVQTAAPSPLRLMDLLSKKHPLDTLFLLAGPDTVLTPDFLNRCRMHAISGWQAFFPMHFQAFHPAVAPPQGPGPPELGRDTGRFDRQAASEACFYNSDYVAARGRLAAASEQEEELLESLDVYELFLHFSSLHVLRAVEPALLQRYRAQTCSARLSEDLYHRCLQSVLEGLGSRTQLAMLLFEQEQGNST
UniProt Q9HAW4: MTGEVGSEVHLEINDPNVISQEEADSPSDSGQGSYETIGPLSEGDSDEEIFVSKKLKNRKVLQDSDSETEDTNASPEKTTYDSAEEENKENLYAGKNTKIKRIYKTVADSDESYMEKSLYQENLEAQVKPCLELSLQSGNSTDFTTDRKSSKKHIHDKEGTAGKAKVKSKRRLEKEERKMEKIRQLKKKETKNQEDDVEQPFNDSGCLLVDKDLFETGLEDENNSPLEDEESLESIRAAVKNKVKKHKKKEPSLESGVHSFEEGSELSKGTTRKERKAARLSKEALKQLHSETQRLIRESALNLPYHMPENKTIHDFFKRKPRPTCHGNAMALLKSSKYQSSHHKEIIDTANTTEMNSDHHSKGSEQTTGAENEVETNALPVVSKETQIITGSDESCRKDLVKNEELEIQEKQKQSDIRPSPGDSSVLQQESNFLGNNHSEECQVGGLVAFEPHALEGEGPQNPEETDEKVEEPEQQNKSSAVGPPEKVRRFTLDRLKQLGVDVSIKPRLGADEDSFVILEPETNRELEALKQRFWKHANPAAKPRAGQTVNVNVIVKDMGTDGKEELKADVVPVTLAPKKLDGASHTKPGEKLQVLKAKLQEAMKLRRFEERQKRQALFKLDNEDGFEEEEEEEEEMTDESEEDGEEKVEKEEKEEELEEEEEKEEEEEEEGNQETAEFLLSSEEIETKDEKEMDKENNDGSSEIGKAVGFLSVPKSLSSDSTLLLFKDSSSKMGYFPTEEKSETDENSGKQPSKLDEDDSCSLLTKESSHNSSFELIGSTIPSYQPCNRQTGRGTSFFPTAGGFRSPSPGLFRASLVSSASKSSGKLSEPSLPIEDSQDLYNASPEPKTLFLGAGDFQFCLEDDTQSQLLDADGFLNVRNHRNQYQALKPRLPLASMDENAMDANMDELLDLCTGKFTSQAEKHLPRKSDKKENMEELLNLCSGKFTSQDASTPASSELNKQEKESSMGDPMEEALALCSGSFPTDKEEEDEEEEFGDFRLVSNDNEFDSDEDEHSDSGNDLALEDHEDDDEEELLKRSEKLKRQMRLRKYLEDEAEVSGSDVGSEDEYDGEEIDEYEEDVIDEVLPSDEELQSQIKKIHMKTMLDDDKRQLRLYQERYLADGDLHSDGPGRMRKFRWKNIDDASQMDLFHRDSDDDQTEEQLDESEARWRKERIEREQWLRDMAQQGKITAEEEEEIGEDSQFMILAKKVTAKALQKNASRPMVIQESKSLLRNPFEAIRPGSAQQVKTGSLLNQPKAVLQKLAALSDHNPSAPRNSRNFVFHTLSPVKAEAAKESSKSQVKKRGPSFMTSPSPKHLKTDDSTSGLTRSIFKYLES
UniProt O43405: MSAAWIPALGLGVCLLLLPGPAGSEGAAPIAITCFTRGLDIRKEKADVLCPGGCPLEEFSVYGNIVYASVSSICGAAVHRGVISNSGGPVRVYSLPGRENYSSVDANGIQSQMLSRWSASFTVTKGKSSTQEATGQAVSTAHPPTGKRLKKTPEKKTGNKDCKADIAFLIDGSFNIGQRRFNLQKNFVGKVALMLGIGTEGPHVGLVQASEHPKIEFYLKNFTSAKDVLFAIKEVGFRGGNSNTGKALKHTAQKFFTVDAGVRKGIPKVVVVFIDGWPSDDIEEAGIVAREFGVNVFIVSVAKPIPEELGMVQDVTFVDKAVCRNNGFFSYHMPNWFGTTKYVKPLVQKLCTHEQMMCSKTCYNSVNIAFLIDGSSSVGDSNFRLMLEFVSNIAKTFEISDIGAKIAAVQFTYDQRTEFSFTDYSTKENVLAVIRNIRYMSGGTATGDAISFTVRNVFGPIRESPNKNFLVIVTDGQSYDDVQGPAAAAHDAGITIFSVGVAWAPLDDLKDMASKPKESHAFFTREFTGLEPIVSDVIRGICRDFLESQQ
UniProt Q9NYJ1, whole entry, looked up: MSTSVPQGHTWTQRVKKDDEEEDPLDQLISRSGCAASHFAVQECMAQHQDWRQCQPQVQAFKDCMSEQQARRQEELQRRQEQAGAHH
UniProt Q16740, whole entry, looked up: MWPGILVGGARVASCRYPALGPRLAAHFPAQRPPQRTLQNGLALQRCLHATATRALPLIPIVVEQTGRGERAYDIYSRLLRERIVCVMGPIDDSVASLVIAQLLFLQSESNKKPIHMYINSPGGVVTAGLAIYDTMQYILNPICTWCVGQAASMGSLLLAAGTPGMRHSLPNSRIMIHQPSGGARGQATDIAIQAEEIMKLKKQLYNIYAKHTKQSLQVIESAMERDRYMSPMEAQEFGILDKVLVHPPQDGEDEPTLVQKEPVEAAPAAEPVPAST
UniProt Q96KP4: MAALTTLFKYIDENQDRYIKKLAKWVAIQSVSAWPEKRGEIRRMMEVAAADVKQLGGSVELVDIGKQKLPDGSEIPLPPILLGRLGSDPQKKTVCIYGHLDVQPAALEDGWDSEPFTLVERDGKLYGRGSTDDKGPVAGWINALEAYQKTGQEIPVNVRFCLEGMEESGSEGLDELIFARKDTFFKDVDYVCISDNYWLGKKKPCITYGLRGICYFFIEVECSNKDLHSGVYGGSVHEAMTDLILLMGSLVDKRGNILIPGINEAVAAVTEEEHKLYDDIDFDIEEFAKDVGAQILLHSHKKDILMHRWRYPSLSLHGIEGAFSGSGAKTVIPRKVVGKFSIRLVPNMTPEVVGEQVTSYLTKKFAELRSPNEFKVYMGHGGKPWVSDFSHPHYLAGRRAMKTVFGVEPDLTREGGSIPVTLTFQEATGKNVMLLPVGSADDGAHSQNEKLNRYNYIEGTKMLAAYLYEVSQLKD
UniProt Q05707: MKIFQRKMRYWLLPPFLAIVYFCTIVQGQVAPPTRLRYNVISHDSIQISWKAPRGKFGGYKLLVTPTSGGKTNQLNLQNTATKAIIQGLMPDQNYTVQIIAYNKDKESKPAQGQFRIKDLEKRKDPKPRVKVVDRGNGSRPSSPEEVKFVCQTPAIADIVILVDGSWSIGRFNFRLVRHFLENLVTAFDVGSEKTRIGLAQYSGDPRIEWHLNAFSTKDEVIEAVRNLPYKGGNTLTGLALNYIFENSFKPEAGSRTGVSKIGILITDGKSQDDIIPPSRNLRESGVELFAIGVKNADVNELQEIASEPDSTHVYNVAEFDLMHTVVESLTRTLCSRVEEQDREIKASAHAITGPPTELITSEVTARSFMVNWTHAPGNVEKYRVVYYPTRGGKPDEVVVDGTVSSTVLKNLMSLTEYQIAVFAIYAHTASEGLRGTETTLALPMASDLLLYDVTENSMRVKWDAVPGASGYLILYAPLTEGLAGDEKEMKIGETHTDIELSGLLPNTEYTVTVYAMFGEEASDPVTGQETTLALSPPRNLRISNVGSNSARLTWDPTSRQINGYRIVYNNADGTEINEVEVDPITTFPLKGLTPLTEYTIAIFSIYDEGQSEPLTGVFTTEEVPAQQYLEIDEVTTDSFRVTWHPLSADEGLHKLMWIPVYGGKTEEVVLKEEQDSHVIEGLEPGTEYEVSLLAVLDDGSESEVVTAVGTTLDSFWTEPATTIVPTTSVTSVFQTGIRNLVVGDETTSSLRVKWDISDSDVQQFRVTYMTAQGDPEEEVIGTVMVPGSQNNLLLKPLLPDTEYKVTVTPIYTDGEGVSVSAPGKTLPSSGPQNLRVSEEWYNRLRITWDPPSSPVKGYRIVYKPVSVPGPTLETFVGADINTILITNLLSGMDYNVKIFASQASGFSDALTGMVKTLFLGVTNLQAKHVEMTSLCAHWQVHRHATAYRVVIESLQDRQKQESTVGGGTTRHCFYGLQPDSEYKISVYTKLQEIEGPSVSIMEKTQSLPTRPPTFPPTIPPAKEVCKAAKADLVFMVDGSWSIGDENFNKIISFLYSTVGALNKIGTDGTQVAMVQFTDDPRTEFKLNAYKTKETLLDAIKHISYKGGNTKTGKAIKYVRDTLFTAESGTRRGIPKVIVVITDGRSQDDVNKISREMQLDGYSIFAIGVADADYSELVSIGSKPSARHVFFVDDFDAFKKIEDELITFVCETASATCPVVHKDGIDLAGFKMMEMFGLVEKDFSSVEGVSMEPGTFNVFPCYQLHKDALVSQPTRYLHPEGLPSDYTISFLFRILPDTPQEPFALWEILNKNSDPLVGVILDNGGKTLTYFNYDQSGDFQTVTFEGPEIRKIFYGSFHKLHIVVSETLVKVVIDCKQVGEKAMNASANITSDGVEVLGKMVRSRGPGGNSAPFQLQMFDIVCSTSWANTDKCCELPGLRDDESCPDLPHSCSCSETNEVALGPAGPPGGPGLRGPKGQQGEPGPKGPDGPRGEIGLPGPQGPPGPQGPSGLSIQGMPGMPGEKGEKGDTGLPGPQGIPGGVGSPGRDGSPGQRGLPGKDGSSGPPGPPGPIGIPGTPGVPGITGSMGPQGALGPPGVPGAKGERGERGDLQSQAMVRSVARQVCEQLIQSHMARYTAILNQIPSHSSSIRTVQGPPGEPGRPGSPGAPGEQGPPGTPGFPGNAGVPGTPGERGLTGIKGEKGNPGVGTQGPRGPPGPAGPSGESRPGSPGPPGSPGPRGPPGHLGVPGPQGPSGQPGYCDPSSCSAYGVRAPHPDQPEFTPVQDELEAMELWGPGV

Tests used:
Assay in all cases: log2 fold change, soluble protein after heating vs DMSO (PISA); higher = thermal stabilisation; K562 cells, 10 uM, 30 min; active = over 0.2 and 3.5 SD of the protein, either way, in both replicates (recomputed)
[1] = compound: CC1=C(C=C(C=C1)NC(=O)C2=CC(=CC=C2)C(C)(C)C#N)NC3=CC4=C(C=C3)N=CN(C4=O)C
How it was run: (§1)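 Soluble protein was defined as the supernatant after 21,000xg for 90 min. It came from K562 cells at 2×10^6 cells/mL given 10 μM compound for 30 min, heated in aliquots for 3 min across 48°C-58°C, pooled, and extracted in PBS with 0.5% NP-40 at 4°C, and was quantified by TMTpro 16plex LC-MS/MS with equalised channel sums. Thermal stability against control samples, from duplicates, is reported as log2 fold change.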

[2] = compound: CC1=C(C=C(C=C1)NC(=O)C2=CC(=CC=C2)N(C)C)NC(=O)C3=CC=C(C=C3)O
How it was run: as §1

[3] = compound: CC1=CC=C(C=C1)SC2=C3C=C(SC3=CN=C2)C(=O)N
How it was run: as §1

[4] = compound: CC1=NC(=CC=C1)C2=C(N=C(N2)C(C)(C)C)C3=CC4=NC=CN=C4C=C3
How it was run: as §1

Nexturastat A = compound: CCCCN(Cc1ccc(C(=O)NO)cc1)C(=O)Nc1ccccc1 [Nexturastat A]
How it was run: as §1

vemurafenib = compound: CCCS(=O)(=O)Nc1ccc(F)c(C(=O)c2c[nH]c3ncc(-c4ccc(Cl)cc4)cc23)c1F [vemurafenib]
How it was run: as §1

[5] = compound: CCCS(=O)(=O)Nc1ccc(F)c(C(=O)c2c[nH]c3ncc(Cl)cc23)c1F
How it was run: as §1

[6] = compound: CCCc1cc(C)[nH]c(=O)c1CNC(=O)c1cc(-c2ccnc(N3CCN(C)CC3)c2)cc2c1cnn2C(C)C
How it was run: as §1

givinostat = compound: CCN(CC)Cc1ccc2cc(COC(=O)Nc3ccc(C(=O)NO)cc3)ccc2c1 [givinostat]
How it was run: as §1

barasertib = compound: CCN(CCCOc1ccc2c(Nc3cc(CC(=O)Nc4cccc(F)c4)[nH]n3)ncnc2c1)CCOP(=O)(O)O [barasertib]
How it was run: as §1

[7] = compound: CC[C@@H]1C(=O)N(C)c2cnc(Nc3ccc(C(=O)NC4CCN(C)CC4)cc3OC)nc2N1C1CCCC1
How it was run: as §1

volasertib = compound: CC[C@@H]1C(=O)N(C)c2cnc(Nc3ccc(C(=O)N[C@H]4CC[C@H](N5CCN(CC6CC6)CC5)CC4)cc3OC)nc2N1C(C)C [volasertib]
How it was run: as §1

[8] = compound: CC[C@H](C)N1C=C(C2=C(C=C(C=C21)C3=CN=C(C=C3)N4CCNCC4)C(=O)NCC5=C(C=C(NC5=O)C)C)C
How it was run: as §1

epoxomicin = compound: CC[C@H](C)[C@@H](C(=O)N[C@@H]([C@@H](C)O)C(=O)N[C@@H](CC(C)C)C(=O)[C@]1(CO1)C)NC(=O)[C@H]([C@@H](C)CC)N(C)C(=O)C [epoxomicin]
How it was run: as §1

[9] = compound: CCn1cc(-c2ccnc3[nH]c(-c4cccc(CN(C)C)c4)cc23)c(-c2ccc(NC(=O)N(C)C)cc2)n1
How it was run: as §1

[10] = compound: CN(C)CC(=O)Nc1ccc2[nH]c(=O)c3ccccc3c2c1
How it was run: as §1

[11] = compound: CN1C2=C(C3=C1C(=O)N(N=C3)CC4=CC(=CC=C4)N)SC(=C2)S(=O)C
How it was run: as §1

[12] = compound: CN1CCC(CNc2ccc3ncc(-c4cccc(OC(F)(F)F)c4)n3n2)CC1
How it was run: as §1

rosiglitazone = compound: CN(CCOC1=CC=C(C=C1)C[C@H]2C(=O)NC(=O)S2)C3=CC=CC=N3 (racemic) [rosiglitazone]
How it was run: as §1

[13] = compound: CCn1c(C(=O)N(C2CC2)C2CC2)cc2c3c(ncn3C)c(Nc3cc(C)n(C)n3)nc21
How it was run: as §1

Target | log2 fold change [1] | log2 fold change [2] | log2 fold change [3] | log2 fold change [4] | log2 fold change (Nexturastat A) | log2 fold change (vemurafenib) | log2 fold change [5] | log2 fold change [6] | log2 fold change (givinostat) | log2 fold change (barasertib) | log2 fold change [7] | log2 fold change (volasertib) | log2 fold change [8] | log2 fold change (epoxomicin) | log2 fold change [9] | log2 fold change [10] | log2 fold change [11] | log2 fold change [12] | log2 fold change (rosiglitazone) | log2 fold change [13]
CLASP2 isoform 3 (UniProt O75122) | inactive: -0.032 | inactive: -0.01 | inactive: 0.013 | inactive: 0.012 | inactive: -0.006 | inactive: 0.089 | inactive: 0.061 | inactive: 0.029 | inactive: 0.013 | inactive: 0.066 | inactive: -0.175 | active: -0.326 | inactive: 0.054 | inactive: 0.034 | inactive: -0.024 | inactive: 0.051 | inactive: 0 | active: -0.227 | – | –
CHPF (UniProt Q8IZ52) | inactive: 0.061 | inactive: 0.061 | inactive: 0.006 | inactive: -0.205 | inactive: -0.12 | inactive: -0.126 | inactive: -0.135 | inactive: 0.125 | – | inactive: -0.029 | inactive: -0.025 | inactive: -0.053 | inactive: -0.085 | inactive: -0.11 | – | inactive: -0.182 | inactive: 0.171 | – | inactive: 0.072 | –
CHURC1-FNTB (UniProt B4DL54) | inactive: -0.071 | inactive: -0.034 | inactive: 0.014 | inactive: -0.02 | inactive: -0.04 | inactive: 0.04 | inactive: 0.042 | inactive: -0.113 | inactive: -0.08 | inactive: -0.011 | inactive: -0.111 | inactive: -0.249 | – | inactive: 0.073 | inactive: 0.008 | inactive: -0.047 | – | inactive: -0.149 | inactive: 0.027 | inactive: 0.047
CNN2 (UniProt Q99439) | inactive: 0.034 | inactive: -0.037 | inactive: 0.035 | inactive: 0.023 | inactive: -0.042 | inactive: 0.085 | inactive: 0.073 | inactive: 0.003 | inactive: 0.063 | inactive: 0.077 | inactive: -0.149 | active: -0.354 | inactive: 0.058 | inactive: 0.106 | inactive: 0.03 | inactive: 0.023 | inactive: 0.012 | inactive: -0.055 | – | –
CKS1B (UniProt P61024) | inactive: -0.043 | inactive: -0.094 | inactive: -0.121 | inactive: 0.036 | inactive: -0.005 | inactive: 0.056 | inactive: -0.17 | inactive: -0.38 | inactive: -0.034 | inactive: 0.029 | inactive: -0.028 | inactive: 0.068 | inactive: 0.094 | inactive: 0.014 | inactive: 0.041 | inactive: -0.024 | inactive: 0.022 | inactive: -0.006 | – | –
CHST11 (UniProt Q9NPF2) | inactive: 0.019 | inactive: 0.099 | inactive: 0.189 | inactive: 0.047 | inactive: 0.013 | inactive: 0.027 | active: 0.384 | inactive: 0.089 | inactive: -0.029 | inactive: 0.049 | inactive: -0.215 | inactive: -0.187 | inactive: -0.078 | inactive: 0.011 | inactive: -0.017 | inactive: -0.045 | – | inactive: 0.022 | – | –
CIR1 (UniProt Q86X95) | inactive: -0.04 | inactive: -0.38 | inactive: 0.047 | inactive: -0.018 | inactive: 0.199 | inactive: -0.156 | inactive: -0.129 | inactive: 0.047 | inactive: -0.015 | inactive: -0.105 | inactive: 0 | inactive: 0.049 | – | inactive: -0.212 | inactive: 0.055 | inactive: 0.142 | inactive: 0.234 | inactive: -0.458 | – | –
CLSPN (UniProt Q9HAW4) | inactive: -0.048 | inactive: 0.003 | inactive: -0.025 | inactive: -0.035 | inactive: 0.006 | inactive: 0.041 | inactive: 0 | inactive: -0.012 | inactive: -0.032 | inactive: 0.006 | inactive: -0.017 | inactive: -0.159 | inactive: -0.019 | inactive: 0.037 | inactive: 0.031 | inactive: -0.048 | inactive: 0.04 | inactive: -0.02 | – | –
COA6 isoform 2 (UniProt Q5JTJ3) | inactive: -0.054 | inactive: -0.012 | active: 0.767 | inactive: 0.036 | inactive: 0.007 | inactive: -0.041 | inactive: -0.009 | inactive: -0.089 | inactive: -0.02 | inactive: -0.042 | inactive: 0.045 | inactive: 0.04 | inactive: -0.004 | inactive: 0.079 | inactive: 0.045 | inactive: -0.023 | inactive: -0.16 | inactive: 0.022 | – | –
COCH (UniProt O43405) | inactive: 0.072 | inactive: 0.053 | inactive: 0.059 | inactive: 0.005 | inactive: 0.046 | inactive: -0.067 | inactive: -0.05 | inactive: 0.076 | inactive: -0.049 | inactive: 0 | inactive: 0.117 | inactive: -0.08 | inactive: -0.065 | inactive: -0.153 | inactive: 0.075 | inactive: -0.127 | inactive: 0.007 | inactive: 0.076 | – | –
COA4 isoform 2 (UniProt Q9NYJ1) | inactive: 0.066 | inactive: -0.304 | inactive: 0.054 | inactive: -0.058 | inactive: 0 | – | inactive: 0.029 | inactive: -0.013 | inactive: -0.007 | inactive: 0.083 | inactive: 0.035 | inactive: 0.006 | inactive: -0.044 | inactive: 0.45 | inactive: 0.122 | – | inactive: 0.072 | inactive: 0.094 | inactive: 0.025 | inactive: -0.007
CLPP (UniProt Q16740) | inactive: -0.002 | inactive: -0.004 | inactive: -0.003 | inactive: 0.007 | inactive: 0.041 | inactive: 0.015 | inactive: 0.008 | inactive: 0.023 | inactive: 0.003 | inactive: 0.001 | inactive: -0.03 | inactive: 0.035 | inactive: -0.045 | inactive: -0.056 | inactive: -0.015 | inactive: 0.017 | inactive: 0 | inactive: 0.081 | – | –
CNDP2 (UniProt Q96KP4) | inactive: 0.021 | inactive: -0.013 | inactive: 0.04 | inactive: 0.043 | inactive: -0.131 | inactive: 0.016 | inactive: 0.003 | inactive: -0.052 | inactive: -0.087 | inactive: -0.004 | inactive: -0.037 | inactive: 0.014 | inactive: -0.003 | inactive: -0.012 | inactive: -0.1 | inactive: -0.002 | inactive: -0.103 | inactive: -0.149 | – | –
CKAP2 (UniProt Q8WWK9) | inactive: -0.023 | inactive: 0.125 | inactive: -0.095 | inactive: -0.163 | inactive: 0.402 | – | inactive: -0.019 | inactive: 0.204 | inactive: 0.156 | – | – | inactive: -0.356 | inactive: 0.026 | inactive: -0.272 | – | – | inactive: 0.395 | – | – | inactive: -0.135
COL14A1 (UniProt Q05707) | inactive: -0.038 | – | inactive: 0.019 | inactive: 0.183 | inactive: 0.104 | inactive: 0.16 | inactive: -0.026 | inactive: -0.079 | – | – | inactive: 0.018 | inactive: -0.043 | inactive: 0.039 | inactive: 0 | inactive: 0.053 | inactive: -0.145 | inactive: 0.139 | inactive: 0.031 | – | –
CLN8 (UniProt Q9UBY8) | inactive: -0.018 | inactive: 0.081 | inactive: -0.085 | – | – | inactive: -0.001 | inactive: -0.109 | inactive: -0.132 | inactive: -0.086 | inactive: 0.051 | inactive: 0.069 | inactive: 0.001 | inactive: 0.077 | – | inactive: 0.005 | inactive: 0.145 | inactive: 0.135 | inactive: 0.191 | – | –
COG4 (UniProt Q9H9E3) | inactive: 0.118 | inactive: 0.013 | – | inactive: -0.177 | inactive: 0.292 | inactive: 0.115 | – | – | inactive: 0.006 | – | – | – | inactive: -0.19 | inactive: -0.222 | inactive: 0.018 | inactive: 0.129 | inactive: 0.087 | inactive: 0.021 | – | inactive: -0.049
CLIP1 isoform 2 (UniProt P30622) | inactive: -0.024 | inactive: 0.081 | inactive: 0.01 | – | inactive: -0.008 | inactive: -0.032 | inactive: -0.018 | inactive: -0.036 | inactive: 0.014 | inactive: 0.054 | inactive: 0.098 | inactive: 0.004 | inactive: -0.035 | inactive: -0.07 | inactive: -0.018 | inactive: 0.005 | – | inactive: -0.268 | inactive: -0.047 | inactive: 0.051

Some of the entries above in another layout.
Target,log2 fold change [1],log2 fold change [2],log2 fold change [3],log2 fold change [4],log2 fold change (Nexturastat A),log2 fold change (vemurafenib),log2 fold change [5],log2 fold change [6],log2 fold change (givinostat),log2 fold change (barasertib),log2 fold change [7],log2 fold change (volasertib),log2 fold change [8],log2 fold change (epoxomicin),log2 fold change [9],log2 fold change [10],log2 fold change [11],log2 fold change [12],log2 fold change (rosiglitazone),log2 fold change [13]
CNDP2 (UniProt Q96KP4),inactive: 0.021,inactive: -0.013,inactive: 0.04,inactive: 0.043,inactive: -0.131,inactive: 0.016,inactive: 0.003,inactive: -0.052,inactive: -0.087,inactive: -0.004,inactive: -0.037,inactive: 0.014,inactive: -0.003,inactive: -0.012,inactive: -0.1,inactive: -0.002,inactive: -0.103,inactive: -0.149,–,–
CKAP2 (UniProt Q8WWK9),inactive: -0.023,inactive: 0.125,inactive: -0.095,inactive: -0.163,inactive: 0.402,–,inactive: -0.019,inactive: 0.204,inactive: 0.156,–,–,inactive: -0.356,inactive: 0.026,inactive: -0.272,–,–,inactive: 0.395,–,–,inactive: -0.135
COL14A1 (UniProt Q05707),inactive: -0.038,–,inactive: 0.019,inactive: 0.183,inactive: 0.104,inactive: 0.16,inactive: -0.026,inactive: -0.079,–,–,inactive: 0.018,inactive: -0.043,inactive: 0.039,inactive: 0,inactive: 0.053,inactive: -0.145,inactive: 0.139,inactive: 0.031,–,–
